# No constants are given. Whether binding was seen depends on the method and setting. In cells and extracts the contact can be indirect. Some results given as binding are weak or reduced against the parent protein; the word gives no strength.
# Sequences of proteins named here, by UniProt entry; tags and fusion partners are left off. A change or cut given only in a name is not applied to a line headed by its entry.
# UniProt Q96PU5: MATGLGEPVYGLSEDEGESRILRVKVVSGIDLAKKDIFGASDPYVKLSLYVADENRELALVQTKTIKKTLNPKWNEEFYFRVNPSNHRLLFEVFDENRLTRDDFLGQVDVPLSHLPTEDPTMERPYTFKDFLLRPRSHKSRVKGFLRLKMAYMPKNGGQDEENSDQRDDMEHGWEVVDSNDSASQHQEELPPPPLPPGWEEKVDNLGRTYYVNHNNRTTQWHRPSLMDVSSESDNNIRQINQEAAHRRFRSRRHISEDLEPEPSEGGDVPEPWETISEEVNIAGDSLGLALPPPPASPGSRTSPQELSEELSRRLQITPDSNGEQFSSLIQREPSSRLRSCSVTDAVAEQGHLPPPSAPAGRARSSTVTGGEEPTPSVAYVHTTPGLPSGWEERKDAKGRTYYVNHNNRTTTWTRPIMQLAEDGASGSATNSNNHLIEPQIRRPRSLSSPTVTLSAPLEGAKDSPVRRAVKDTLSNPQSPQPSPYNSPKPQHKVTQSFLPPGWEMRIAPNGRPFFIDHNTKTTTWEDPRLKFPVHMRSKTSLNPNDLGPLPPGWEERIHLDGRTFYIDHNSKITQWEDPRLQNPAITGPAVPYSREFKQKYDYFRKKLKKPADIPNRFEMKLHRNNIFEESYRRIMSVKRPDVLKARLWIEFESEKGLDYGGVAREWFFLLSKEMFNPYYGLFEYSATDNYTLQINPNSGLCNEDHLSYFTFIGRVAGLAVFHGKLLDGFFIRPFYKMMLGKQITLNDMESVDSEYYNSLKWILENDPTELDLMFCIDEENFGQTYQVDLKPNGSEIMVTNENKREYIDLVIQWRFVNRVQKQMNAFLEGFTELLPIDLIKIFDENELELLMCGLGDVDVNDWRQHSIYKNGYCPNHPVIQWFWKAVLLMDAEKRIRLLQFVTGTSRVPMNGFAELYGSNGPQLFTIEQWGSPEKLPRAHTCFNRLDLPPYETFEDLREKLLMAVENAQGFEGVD
# Assays:
# [1] = target: Myc-tagged NEDD4L (WT) (UniProt Q96PU5); assay: co-IP; anti-Myc antibody, lysates of HEK293T cells cotransfected with Myc-tagged NEDD4L forms and FLAG-tagged SLC3A2
# [2] = target: Myc-tagged NEDD4L-C942A (E3 ligase activity mutant) (UniProt Q96PU5); assay: as above
substance,measurement,setting,value
FLAG-tagged SLC3A2 (from UniProt P08195 1-529),binding,[1],binds
same,binding,[2],no binding
